Laboratory results: patent publication US5965524A (Peptide Technologies Corporation, priority 1994, dated 1999)
Values joined by “and” are separate entries in the source; they are usually repeats but may differ in a detail not shown here. Equal values may be shown once. Some peptides are written in HELM: one residue between dots, names in brackets for other building blocks, links after the first $.

Experiment: general procedure: Fmoc solid-phase peptide synthesis; alkoxybenzyl alcohol resin; DCC/HOBT; Pfp esters
Details: for crude mass / isolated mass / isolated yield: whole synthesis, scale 0.37 mmol; for cyclisation yield: cyclisation step

**Q.** For “PEPTIDE1{[D-3-Hydroxydecanoyl].L.[dE].[D-allo-Thr].[dV].L.[dS].L.[dS].I}$$$$V2.0”, which crude mass is on record?
**A.** The crude mass was 670 mg.

**Q.** What about the isolated mass of the same substance?
**A.** The isolated mass was 144 mg.

**Q.** And the isolated yield?
**A.** Its isolated yield is 34%.

**Q.** Which cyclisation yield does the source give for Deshydroxy Viscosin here?
**A.** Its cyclisation yield is 52%.

**Q.** With “PEPTIDE1{[D-3-Hydroxydecanoyl].L.[dE].[dT].[dV].L.[dS].L.[dS].I}$$$$V2.0” as the substance, how does the isolated mass read?
**A.** The isolated mass was 41 mg.

**Q.** And the isolated yield?
**A.** Its isolated yield is 10%.

**Q.** What about the crude mass (run 1) of the same substance?
**A.** The crude mass was 575 mg and 290 mg.

**Q.** For “PEPTIDE1{[D-3-Hydroxydecanoyl].L.[dE].[D-allo-Thr].[dV].L.[dS].L.[dS].I}$PEPTIDE1,PEPTIDE1,4:R3-10:R2$$$V2.0”, which cyclisation yield is on record?
**A.** The cyclisation yield was 29%.

**Q.** What about the step yield (late stage modification step) of the same substance?
**A.** Its step yield is 78%.
